# From the supplement of paper PMC8728848
# The other results are listed elsewhere or left out.
# B1: SRS2 (Toxoplasma gondii), O15695 (protein)
# chain: MATRASLARQKTGAACLAVLTASPSVVAAKPWKRWVGVSVILASAFAVGVSAGPPYRYEPEKFTCRPKKGILSQWVSLLYQVQHNITFACEEATPVPTTLISEEHGLMVCAENMTPEECEANPAPLSAFLPGATKEWVTGDSVLTGLKISVPESQYPANAKSFRVGCRHNTKTGNTCMLTIHVEPRDPAVERQEARCSYTENSTLPKIFVTKDSNTMTLACGPHGAPMPESYTENYCSTPDTCDEKPFTSVIPGYLSKWFFGDPKSPLGARVRIPPEQIPSSPQINYFGCTGPTEGEGPKYNCTVPVPLGGGDPSEGSRPGGGSGGGKRGGGQGGGGSLAGFDFRQGSARHSLPSRMALSASALLAMTALAY
# Experiments:
# Test in all cases: glycan array binding signal (z-score within array); higher = stronger binding
# Conditions in all cases: glycan notation: IUPAC condensed, linker removed
# [1] = molecular target: GlcNAc(b1-3)Gal(b1-4)GlcNAc(b1-3)Gal(b1-4)GlcNAc
# How it was run: (§1)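 The binding signal is a Z-score computed within each array. Data were drawn from 3228 arrays in the Consortium for Functional Glycomics database, restricted to those with a known protein sequence. Scores were averaged over arrays of the same protein sequence at different concentrations or buffers, and over linkers, and negative values can be taken as non-binding.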
# GlcNAc(b1-3)GalNAc = molecular target: GlcNAc(b1-3)GalNAc
# How it was run: as §1
# GlcNAc(b1-3)Man = molecular target: GlcNAc(b1-3)Man
# How it was run: as §1
# [2] = molecular target: GlcNAc(b1-3)[GlcNAc(b1-4)][GlcNAc(b1-6)]GlcNAc
# How it was run: as §1
# [3] = molecular target: GlcNAc(b1-3)[GlcNAc(b1-6)]Gal(b1-4)GlcNAc
# How it was run: as §1
# [4] = molecular target: GlcNAc(b1-3)[GlcNAc(b1-6)]GalNAc
# How it was run: as §1
# [5] = molecular target: GlcNAc(b1-4)Gal(b1-4)GlcNAc
# How it was run: as §1
# GlcNAc(b1-4)GlcNAc = molecular target: GlcNAc(b1-4)GlcNAc
# How it was run: as §1
# [6] = molecular target: GlcNAc(b1-4)GlcNAc(b1-4)GlcNAc
# How it was run: as §1
# [7] = molecular target: GlcNAc(b1-4)GlcNAc(b1-4)GlcNAc(b1-4)GlcNAc(b1-4)GlcNAc
# How it was run: as §1
# [8] = molecular target: GlcNAc(b1-4)GlcNAc(b1-4)GlcNAc(b1-4)GlcNAc(b1-4)GlcNAc(b1-4)GlcNAc
# How it was run: as §1
# [9] = molecular target: GlcNAc(b1-4)[GlcNAc(b1-6)]GalNAc
# How it was run: as §1
# [10] = molecular target: GlcNAc(b1-6)Gal(b1-4)GlcNAc
# How it was run: as §1
# GlcNAc(b1-6)GalNAc = molecular target: GlcNAc(b1-6)GalNAc
# How it was run: as §1
# GlcNAc3Prop(b1-4)GlcNAc = molecular target: GlcNAc3Prop(b1-4)GlcNAc
# How it was run: as §1
# [11] = molecular target: GlcNAc6S(b1-3)Gal(b1-4)GlcNAc
# How it was run: as §1
# Kdn(a2-3)Gal(b1-3)GalNAc = molecular target: Kdn(a2-3)Gal(b1-3)GalNAc
# How it was run: as §1
# Kdn(a2-3)Gal(b1-3)GlcNAc = molecular target: Kdn(a2-3)Gal(b1-3)GlcNAc
# How it was run: as §1
# Kdn(a2-3)Gal(b1-4)Glc = molecular target: Kdn(a2-3)Gal(b1-4)Glc
# How it was run: as §1
# Kdn(a2-3)Gal(b1-4)GlcNAc = molecular target: Kdn(a2-3)Gal(b1-4)GlcNAc
# How it was run: as §1
# [12] = molecular target: Kdn(a2-3)Gal(b1-4)[Fuc(a1-3)]GlcNAc
# How it was run: as §1
# Kdn(a2-6)Gal(b1-4)GlcNAc = molecular target: Kdn(a2-6)Gal(b1-4)GlcNAc
# How it was run: as §1
# [13] = molecular target: Man(a1-2)Man(a1-2)Man(a1-3)Man
# How it was run: as §1
# [14] = molecular target: Man(a1-2)Man(a1-2)Man(a1-6)[Man(a1-3)]Man
# How it was run: as §1
# Man(a1-2)Man(a1-3)Man = molecular target: Man(a1-2)Man(a1-3)Man
# How it was run: as §1
# [15] = molecular target: Man(a1-2)Man(a1-3)[Man(a1-2)Man(a1-6)]Man
# How it was run: as §1
# [16] = molecular target: Man(a1-2)Man(a1-3)[Man(a1-2)Man(a1-6)]Man(a1-6)[Man(a1-2)Man(a1-2)Man(a1-3)]Man
# How it was run: as §1
# [17] = molecular target: Man(a1-2)Man(a1-3)[Man(a1-2)Man(a1-6)]Man(a1-6)[Man(a1-2)Man(a1-2)Man(a1-3)]Man(b1-4)GlcNAc(b1-4)GlcNAc
# How it was run: as §1
# [18] = molecular target: Man(a1-2)Man(a1-3)[Man(a1-6)]Man(a1-6)[Man(a1-2)Man(a1-3)]Man(b1-4)GlcNAc(b1-4)GlcNAc
# How it was run: as §1
# [19] = molecular target: Man(a1-2)Man(a1-6)[Man(a1-3)]Man(a1-6)[Man(a1-2)Man(a1-2)Man(a1-3)]Man
# How it was run: as §1
# [20] = molecular target: Man(a1-2)Man(a1-6)[Man(a1-3)]Man(a1-6)[Man(a1-2)Man(a1-2)Man(a1-3)]Man(b1-4)GlcNAc(b1-4)GlcNAc
# How it was run: as §1
# Man(a1-3)[Man(a1-6)]Man = molecular target: Man(a1-3)[Man(a1-6)]Man
# How it was run: as §1
# [21] = molecular target: Man(a1-3)[Man(a1-6)]Man(a1-6)[Man(a1-2)Man(a1-3)]Man(b1-4)GlcNAc(b1-4)GlcNAc
# How it was run: as §1
# [22] = molecular target: Man(a1-3)[Man(a1-6)]Man(a1-6)[Man(a1-3)]Man
# How it was run: as §1
# [23] = molecular target: Man(a1-3)[Man(a1-6)]Man(a1-6)[Man(a1-3)]Man(b1-4)GlcNAc(b1-4)GlcNAc
# How it was run: as §1
# [24] = molecular target: Man(a1-3)[Man(a1-6)]Man(b1-4)GlcNAc(b1-4)GlcNAc
# How it was run: as §1
# Man(a1-6)Man = molecular target: Man(a1-6)Man
# How it was run: as §1
binder,measurement,setting,value
B1,glycan array binding signal (z-score),[1],-0.623
same,glycan array binding signal (z-score),GlcNAc(b1-3)GalNAc,-0.462
same,glycan array binding signal (z-score),GlcNAc(b1-3)Man,1.2
same,glycan array binding signal (z-score),[2],-0.157
same,glycan array binding signal (z-score),[3],-0.333
same,glycan array binding signal (z-score),[4],-1.03
same,glycan array binding signal (z-score),[5],-0.247
same,glycan array binding signal (z-score),GlcNAc(b1-4)GlcNAc,0.092
same,glycan array binding signal (z-score),[6],-0.384
same,glycan array binding signal (z-score),[7],0.455
same,glycan array binding signal (z-score),[8],-1.22
same,glycan array binding signal (z-score),[9],0.379
same,glycan array binding signal (z-score),[10],0.925
same,glycan array binding signal (z-score),GlcNAc(b1-6)GalNAc,-0.782
same,glycan array binding signal (z-score),GlcNAc3Prop(b1-4)GlcNAc,0.829
same,glycan array binding signal (z-score),[11],-0.047
same,glycan array binding signal (z-score),Kdn(a2-3)Gal(b1-3)GalNAc,0.419
same,glycan array binding signal (z-score),Kdn(a2-3)Gal(b1-3)GlcNAc,0.255
same,glycan array binding signal (z-score),Kdn(a2-3)Gal(b1-4)Glc,0.049
same,glycan array binding signal (z-score),Kdn(a2-3)Gal(b1-4)GlcNAc,0.163
same,glycan array binding signal (z-score),[12],1.08
same,glycan array binding signal (z-score),Kdn(a2-6)Gal(b1-4)GlcNAc,-0.107
same,glycan array binding signal (z-score),[13],0.449
same,glycan array binding signal (z-score),[14],0.396
same,glycan array binding signal (z-score),Man(a1-2)Man(a1-3)Man,0.173
same,glycan array binding signal (z-score),[15],-0.397
same,glycan array binding signal (z-score),[16],-1.13
same,glycan array binding signal (z-score),[17],-0.045
same,glycan array binding signal (z-score),[18],-0.726
same,glycan array binding signal (z-score),[19],0.304
same,glycan array binding signal (z-score),[20],-0.189
same,glycan array binding signal (z-score),Man(a1-3)[Man(a1-6)]Man,0.552
same,glycan array binding signal (z-score),[21],-0.774
same,glycan array binding signal (z-score),[22],0.449
same,glycan array binding signal (z-score),[23],0.017
same,glycan array binding signal (z-score),[24],-0.436
same,glycan array binding signal (z-score),Man(a1-6)Man,0.14

# A run of entries taken from the entries so far, for reference:
binder,measurement,setting,value
B1,glycan array binding signal (z-score),[20],-0.189
same,glycan array binding signal (z-score),Man(a1-3)[Man(a1-6)]Man,0.552
same,glycan array binding signal (z-score),[21],-0.774
